Drawing on patent US7288256B1 (Merck Patent GmbH, priority 1991, dated 2007), this text covers difficulty met for one sequence.

No end group written: not given here.

The data set is described as follows: peptide synthesis. The note with it: whole synthesis.

Consider DKQLEAVFEANQNTKTAKIEIKASIDE, for which the difficulty met result is “it was very difficult to synthesize”.
